# Laboratory results taken from article PMC8693076.
# By UniProt entry, the sequences of proteins in these tests, tags left out. Where a name states a change or a piece, a line headed by the entry shows the natural chain unless it says otherwise.
# UniProt Q9GZV5: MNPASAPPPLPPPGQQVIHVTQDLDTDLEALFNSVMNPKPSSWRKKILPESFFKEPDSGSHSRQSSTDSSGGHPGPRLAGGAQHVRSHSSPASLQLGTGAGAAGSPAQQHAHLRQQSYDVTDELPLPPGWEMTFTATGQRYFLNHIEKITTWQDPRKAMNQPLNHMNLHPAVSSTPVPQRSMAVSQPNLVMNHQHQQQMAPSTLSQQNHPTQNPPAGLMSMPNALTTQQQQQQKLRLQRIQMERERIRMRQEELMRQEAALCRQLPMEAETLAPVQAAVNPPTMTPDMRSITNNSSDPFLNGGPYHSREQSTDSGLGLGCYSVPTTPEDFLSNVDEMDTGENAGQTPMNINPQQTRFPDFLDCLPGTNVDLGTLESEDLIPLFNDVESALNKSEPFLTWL
# Results are given in words; binding and its absence hold for the method and conditions named. In cells and extracts the contact can be indirect. Here binding means that the protein was enriched with, or labelled near, the bait; the list need not be complete.
# B1: Non‐POU domain‐containing octamer‐binding protein (NONO), endogenous, LN229 (protein, UniProt Q15233 1-471)
# chain: MQSNKTFNLEKQNHTPRKHHQHHHQQQHHQQQQQQPPPPPIPANGQQASSQNEGLTIDLKNFRKPGEKTFTQRSRLFVGNLPPDITEEEMRKLFEKYGKAGEVFIHKDKGFGFIRLETRTLAEIAKVELDNMPLRGKQLRVRFACHSASLTVRNLPQYVSNELLEEAFSVFGQVERAVVIVDDRGRPSGKGIVEFSGKPAARKALDRCSEGSFLLTTFPRPVTVEPMDQLDDEEGLPEKLVIKNQQFHKEREQPPRFAQPGSFEYEYAMRWKALIEMEKQQQDQVDRNIKEAREKLEMEMEAARHEHQVMLMRQDLMRRQEELRRMEELHNQEVQKRKQLELRQEEERRRREEEMRRQQEEMMRRQQEGFKGTFPDAREQEIRMGQMAMGGAMGINNRGAMPPAPVPAGTPAPPGPATMMPDGTLGLTPPTTERFGQAATMEGIGAIGGTPPAFNRAAPGAEFAPNKRRRY
# B2: ASPP2 (protein, UniProt Q13625 1-1128)
# chain: MMPMFLTVYLSNNEQHFTEVPVTPETICRDVVDLCKEPGESDCHLAEVWCGSERPVADNERMFDVLQRFGSQRNEVRFFLRHERPPGRDIVSGPRSQDPSLKRNGVKVPGEYRRKENGVNSPRMDLTLAELQEMASRQQQQIEAQQQLLATKEQRLKFLKQQDQRQQQQVAEQEKLKRLKEIAENQEAKLKKVRALKGHVEQKRLSNGKLVEEIEQMNNLFQQKQRELVLAVSKVEELTRQLEMLKNGRIDSHHDNQSAVAELDRLYKELQLRNKLNQEQNAKLQQQRECLNKRNSEVAVMDKRVNELRDRLWKKKAALQQKENLPVSSDGNLPQQAASAPSRVAAVGPYIQSSTMPRMPSRPELLVKPALPDGSLVIQASEGPMKIQTLPNMRSGAASQTKGSKIHPVGPDWSPSNADLFPSQGSASVPQSTGNALDQVDDGEVPLREKEKKVRPFSMFDAVDQSNAPPSFGTLRKNQSSEDILRDAQVANKNVAKVPPPVPTKPKQINLPYFGQTNQPPSDIKPDGSSQQLSTVVPSMGTKPKPAGQQPRVLLSPSIPSVGQDQTLSPGSKQESPPAAAVRPFTPQPSKDTLLPPFRKPQTVAASSIYSMYTQQQAPGKNFQQAVQSALTKTHTRGPHFSSVYGKPVIAAAQNQQQHPENIYSNSQGKPGSPEPETEPVSSVQENHENERIPRPLSPTKLLPFLSNPYRNQSDADLEALRKKLSNAPRPLKKRSSITEPEGPNGPNIQKLLYQRTTIAAMETISVPSYPSKSASVTASSESPVEIQNPYLHVEPEKEVVSLVPESLSPEDVGNASTENSDMPAPSPGLDYEPEGVPDNSPNLQNNPEEPNPEAPHVLDVYLEEYPPYPPPPYPSGEPEGPGEDSVSMRPPEITGQVSLPPGKRTNLRKTGSERIAHGMRVKFNPLALLLDSSLEGEFDLVQRIIYEVDDPSLPNDEGITALHNAVCAGHTEIVKFLVQFGVNVNAADSDGWTPLHCAASCNNVQVCKFLVESGAAVFAMTYSDMQTAADKCEEMEEGYTQCSQFLYGVQEKMGIMNKGVIYALWDYEPQNDDELPMKEGDCMTIIHREDEDEIEWWWARLNDKEGYVPRNLLGLYPRIKPRQRSLA
# B3: AMOTL1 (protein, UniProt Q8IY63 1-956)
# chain: MWRAKLRRGTCEPAVKGSPSACYSPSSPVQVLEDSTYFSPDFQLYSGRHETSALTVEATSSIREKVVEDPLCNFHSPNFLRISEVEMRGSEDAAAGTVLQRLIQEQLRYGTPTENMNLLAIQHQATGSAGPAHPTNNFSSTENLTQEDPQMVYQSARQEPQGQEHQVDNTVMEKQVRSTQPQQNNEELPTYEEAKAQSQFFRGQQQQQQQQGAVGHGYYMAGGTSQKSRTEGRPTVNRANSGQAHKDEALKELKQGHVRSLSERIMQLSLERNGAKQHLPGSGNGKGFKVGGGPSPAQPAGKVLDPRGPPPEYPFKTKQMMSPVSKTQEHGLFYGDQHPGMLHEMVKPYPAPQPVRTDVAVLRYQPPPEYGVTSRPCQLPFPSTMQQHSPMSSQTSSASGPLHSVSLPLPLPMALGAPQPPPAASPSQQLGPDAFAIVERAQQMVEILTEENRVLHQELQGYYDNADKLHKFEKELQRISEAYESLVKSTTKRESLDKAMRNKLEGEIRRLHDFNRDLRDRLETANRQLSSREYEGHEDKAAEGHYASQNKEFLKEKEKLEMELAAVRTASEDHRRHIEILDQALSNAQARVIKLEEELREKQAYVEKVEKLQQALTQLQSACEKREQMERRLRTWLERELDALRTQQKHGNGQPANMPEYNAPALLELVREKEERILALEADMTKWEQKYLEESTIRHFAMNAAATAAAERDTTIINHSRNGSYGESSLEAHIWQEEEEVVQANRRCQDMEYTIKNLHAKIIEKDAMIKVLQQRSRKDAGKTDSSSLRPARSVPSIAAATGTHSRQTSLTSSQLAEEKKEEKTWKGSIGLLLGKEHHEHASAPLLPPPPTSALSSIASTTAASSAHAKTGSKDSSTQTDKSAELFWPSMASLPSRGRLSTTPAHSPVLKHPAAKGTAEKLENSPGHGKSPDHRGRVSSLLHKPEFPDGEMMEVLI
# Molecular target: BirA^R118G‐TAZ fusion protein (UniProt Q9GZV5)
# Assay: proximity labelling; BioID: BirA R118G-TAZ stably expressed in LN229 cells, 0.5 µM biotin 24 h, streptavidin Dynabeads, nano LC-MS/MS; controls BirA R118G alone or vector
row,binding,Binder
1,binds,B1
2,binds,B2
3,binds,B3
